Earlier results as cited in US12648912B2 (Mylan Laboratories Limited, priority 2020, dated 2026).
The name of at least one read-out is uncertain.

In the case of `Cc1cnc(NC(=O)C2=C(O)c3ccccc3S(=O)(=O)N2C)s1` [Meloxicam, 4-hydroxy-2-methyl-N-(5-methyl-2-thiazolyl)-2H-1,2-benzothiazine-3-carboxamide-1,1-dioxide], the “time at which mean Cmax was achieved” value (7.5 mg meloxicam tablet, fasted conditions) is listed as 4 to 5 h and the “Tmax, time at which Cmax was achieved” value (15 mg tablets administered after breakfast) is listed as 5 to 6 h.
